Reference: PMC6317983

Sequences of proteins named here, by UniProt entry; tags and fusion partners are left off. A change or cut given only in a name is not applied to a line headed by its entry.
UniProt M4IWN3: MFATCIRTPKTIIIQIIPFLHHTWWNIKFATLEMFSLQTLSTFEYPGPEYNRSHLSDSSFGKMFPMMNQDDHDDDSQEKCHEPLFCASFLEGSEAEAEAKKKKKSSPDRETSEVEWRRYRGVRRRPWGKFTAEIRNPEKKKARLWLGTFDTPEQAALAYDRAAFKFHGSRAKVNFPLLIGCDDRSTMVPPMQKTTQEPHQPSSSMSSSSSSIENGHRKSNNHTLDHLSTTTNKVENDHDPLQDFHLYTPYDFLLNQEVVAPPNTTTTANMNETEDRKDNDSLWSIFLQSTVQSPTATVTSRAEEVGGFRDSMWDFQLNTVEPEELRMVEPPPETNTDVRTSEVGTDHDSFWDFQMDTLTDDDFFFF
UniProt A0A5A4N0D4: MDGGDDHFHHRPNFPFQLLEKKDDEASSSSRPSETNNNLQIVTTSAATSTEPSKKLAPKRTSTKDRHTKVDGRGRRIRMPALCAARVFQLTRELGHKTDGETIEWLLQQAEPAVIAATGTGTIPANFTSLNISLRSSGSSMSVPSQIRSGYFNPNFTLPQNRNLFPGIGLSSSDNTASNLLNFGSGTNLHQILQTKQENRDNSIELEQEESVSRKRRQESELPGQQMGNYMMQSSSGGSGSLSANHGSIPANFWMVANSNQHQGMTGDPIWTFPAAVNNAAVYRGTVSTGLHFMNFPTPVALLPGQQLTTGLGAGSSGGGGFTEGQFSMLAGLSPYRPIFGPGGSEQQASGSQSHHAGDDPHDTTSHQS

Columns and labels:
[1] = target: BD-AaTCP14 (Artemisia annua); assay: two-hybrid; Y3H: pBridge-AaTCP14 (BD) with or without AaJAZ8 under the MET25 promoter, pGADT7-AaORA, yeast AH109; growth on SD/-T/-L/-H/-A/-M and β-gal activity
[2] = target: BD-AaTCP14 (Artemisia annua); assay: two-hybrid; directed Y2H, pGADT7 and pGKBT7 fusions cotransformed into yeast AH109; growth on TDO and/or QDO, 4 days at 30°C
[3] = target: AaJAZ8 (yeast two-hybrid fusion) (Artemisia annua); assay: as above
[4] = target: GST-AaORA (Artemisia annua) (UniProt M4IWN3); assay: pull-down; purified GST-AaORA and His-AaTCP14 mixed with glutathione-agarose 4B beads, 10 hours at 4°C, 40 mM Hepes-KOH pH 7.5, 10 mM KCl, 3 mM MgCl2, 0.4 M sucrose, 1 mM EDTA, 1 mM DTT, 0.2% Triton X-100; anti-His blot; both purified

Row | binding [1] | binding [2] | binding [3] | binding [4] | Substance
1 | binds | binds | binds | – | AD-AaORA (from UniProt M4IWN3)
2 | – | binds | – | – | AaJAZ8 (yeast two-hybrid fusion) (from UniProt A0A1S5T3I8)
3 | – | – | binds | – | AaMYC2 (from UniProt A0A0H4ITZ2)
4 | – | – | – | binds | His-AaTCP14 (from UniProt A0A5A4N0D4)

These are yes or no findings as the source states them, for the method shown. Binding can be weak; no strength is given.
